Test results published in US20260356834A1, “ANTICONVULSIVE COMPOUNDS AND USES THEREOF” (Jazz Pharmaceuticals Research UK Limite, priority 2023, published 2026).
Values joined by “and” are separate entries in the source; they are usually repeats but may differ in a detail not shown here. Equal values may be shown once.

Test system: C57BL/6J mice
Assay: mouse maximal electroshock seizure threshold model (MEST)
Assay type: in vivo
Conditions: 2.5 mg/kg i.p., 30 min
Experimental: Vehicle=1:2:17 ethanol:Solutol® (Kolliphor® HS 15):saline: 1 mL of ethanol and 2 mL of solutol were warmed to 60 °C and 17 mL of 0.9% saline was added slowly. […]
Vehicle=0.5% HPMC and 0.1% Tween 80:0.5% HPMC and 0.1% Tween 80 in water.

SMILES: CN1C(=O)CN=C(c2ccccc2)c2cc(Cl)ccc21 [Diazepam, diazepam, reference compound]
- CC50 +/− SEM (1:1:18 ethanol:Kolliphor EL:saline): 126.5 ± 2.1 mA
- CC50 +/− SEM (1:2:17 ethanol:Solutol:saline): 125.8 ± 3.9 mA
- CC50 +/− SEM (study with HPMC vehicle): 197.5 ± 3.2 mA and 165.8 ± 1.4 mA
